# PubChem BioAssay AID504444 (National Center for Advancing Translational Sciences (NCATS), 2011)
# About 7,500 (2.1%) of roughly 360,000 compounds were called active. Inconclusive means that the source gave no clear call. Such entries were picked first, then a sample of the others. The call rests on the fitted dose curve; in most records, active means well fitted inhibition curve with a large enough effect; inconclusive means small, poorly fitted or top-dose-only effect, or effect the other way; inactive means flat fitted curve, though single readings scatter. Potencies of inconclusive entries are doubtful fits and often do not repeat.
# Assay: Nrf2 qHTS screen for inhibitors; further: nearly all actives have a fitted effect of over 60% in size
# Conditions: A549 ARE-Fluc reporter, luciferase luminescence, 18-24 h; series mostly up to 46 µM
# Outline: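 In this cell-based qHTS, ARE-driven firefly luciferase in A549 cells reports Nrf2 activity; the luminescent signal after BugLite lysis is the measured value, with a prior CellTiter-Fluor read for cell health.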
# Potency means the concentration at half of the fitted maximal effect.
row,Structure (SMILES),Potency
1,S=C(N=Nc1ccccc1)NNc1ccccc1,"inconclusive: 23.1 µM [activator, partial curve]"
2,Cc1cccc(Nc2nc(NCCCN3CCOCC3)nc(N)c2[N+](=O)[O-])c1,"inconclusive: 32.6 µM [falling, partial curve, poor fit]"
3,CC(=O)c1cccc(Nc2ccc3cc(S(=O)(=O)N4CCC(C)CC4)ccc3n2)c1,active: 20.6 µM
4,COc1ccc(/C=N/n2cnc3scc(-c4cccs4)c3c2=O)cc1OC,"inconclusive: 32.6 µM [activator, single point]"
5,O=S(=O)(/C=C/c1ccccc1)N1CCN(c2ccc(F)cc2)CC1,inactive
6,Cc1cc(C(F)(F)F)n2nc(-c3cccs3)cc2n1,"inconclusive: 23.1 µM [activator, partial curve]"
7,CC1(C)Cc2c(C#N)c(SCC(=O)c3ccccc3)nc(N3CCOCC3)c2CO1,"inconclusive: 3.26 µM [falling, partial curve]"
8,Cc1ccc(OCc2cc(C(=O)NC(C)Cc3cccc(C)n3)no2)cn1 (stereo not drawn),"inconclusive: 18.4 µM [falling, partial curve, poor fit]"
9,Fc1cccc(/C=N/Nc2cc(N3CCOCC3)ncn2)c1,"inconclusive: 4.11 µM [activator, single point]"
10,CCCCCCn1c(N2CCN(c3ccccc3)CC2)nc2c1c(=O)[nH]c(=O)n2C,active: 20.6 µM
11,CCN(CC)c1ccc(NC(=O)c2ccc3c(c2)OCO3)cc1,"inconclusive: 0.164 µM [activator, full curve, poor fit]"
12,Cc1cccc(/N=C/c2c(O)[nH]c3ccccc23)n1,"inconclusive: 3.66 µM [activator, full curve]"
13,CC(C)c1ccc(-c2nnc3n(CCc4ccccc4)c(=O)c4ccccc4n23)cc1,inactive
14,COc1cccc2cc(CC(=O)c3ccc(C)cc3C)c(=O)oc12,"inconclusive: 18.4 µM [activator, partial curve]"
15,CCOC(=O)C1(Cc2cccc(OC)c2)CCCN(C(=O)c2cc(CC(C)C)[nH]n2)C1 (stereo not drawn),"inconclusive: 7.31 µM [activator, partial curve, poor fit]"
16,CCc1nc2ccccc2c(C(=O)OCc2nc3ccccc3c(=O)[nH]2)c1C,"inconclusive: 32.6 µM [falling, single point]"
17,COc1cc(C2C3C(C)N(C)C(=O)N(C)C3N(C)C(=O)N2C)ccc1O (stereo not drawn),"inconclusive: 29.1 µM [activator, single point]"
18,CCc1ccc(C2Sc3ccccc3NC3=C2C(=O)c2ccccc23)cc1 (stereo not drawn),"inconclusive: 6.51 µM [activator, single point]"
19,CCCCN(C)Cc1c(O)ccc2c(-c3ccccc3)cc(=O)oc12,inactive
20,COc1ccc2c(c1OC)C(=O)OC2c1ccc(O)cc1 (stereo not drawn),"inconclusive: 23.1 µM [activator, single point]"
21,CCc1nc(SCC(=O)c2ccc(Cl)s2)c2oc3ccccc3c2n1,"inconclusive: 29.1 µM [falling, single point]"
22,C#CCOCCOCCOCCNc1nc(N2CCN(C(=O)[C@H](CCCCN)n3cc([C@@H](N)CC(C)C)nn3)CC2)nc(N2CCN(C(=O)[C@H](CCCCN)n3cc([C@@H](N)CC(C)C)nn3)CC2)n1,inactive
23,CCCCOc1ccc(-c2[nH]ncc2C=O)cc1,"inconclusive: 20.6 µM [activator, single point]"

row,Structure (SMILES),Potency
1,CCCCCN(C(=O)COC(=O)Cc1c(C)nc2ccccc2c1C)c1c(N)n(CCCC)c(=O)[nH]c1=O,"inconclusive: 9.2 µM [falling, partial curve, poor fit]"
2,COc1ccc2sc(N(CCCN(C)C)C(=O)c3ccc(S(=O)(=O)N4CCc5ccccc5C4)cc3)nc2c1,"inconclusive: 29.1 µM [falling, single point]"
3,O=C1CCCC(O)=C1C=Nc1ccc(O)cc1,"inconclusive: 10.3 µM [falling, partial curve, poor fit]"
4,CCOC(=O)N1CCN(Cc2nc(-c3ccc(Cl)cc3)no2)CC1,"inconclusive: 20.6 µM [falling, single point]"
5,O=C1NC(=S)S/C1=C\c1cc(Cl)ccc1Cl,"inconclusive: 23.1 µM [falling, single point]"
6,Fc1ccc(CSc2ccc3nnc(-c4ccccn4)n3n2)cc1,"inconclusive: 16.4 µM [falling, partial curve]"
7,Cc1cccc(-c2nc(CSc3nncn4c3cc3oc(C)cc34)c(C)o2)c1,inactive
8,N/C(=N\OC(=O)CCc1ccccc1)c1ccc(Br)cc1,"inconclusive: 16.4 µM [activator, single point]"
9,CCSc1ncc(Cl)c(C(=O)Nc2c(C(=O)Nc3cccc(C)c3)oc3ccccc23)n1,inactive
10,Cc1ccc2nc(-c3ccc(Cl)cc3)cc(C(=O)OCC(=O)c3ccccc3)c2c1,"inconclusive: 0.0461 µM [falling, partial curve, poor fit]"
11,Fc1ccc(-c2nnc(-c3ccc(F)cc3)o2)cc1,"inconclusive: 18.4 µM [activator, single point]"
12,Nc1ncnc(N2CCc3ccccc32)c1[N+](=O)[O-],"inconclusive: 2.59 µM [falling, partial curve]"
13,CC(C)Oc1cccc(C(=O)C2CCCN(Cc3cccn3-c3cccnc3)C2)c1 (stereo not drawn),"inconclusive: 25.9 µM [falling, single point]"
14,CC(C)(C)c1ccc(/C=N/NC(=O)c2ccccn2)cc1,"inconclusive: 0.366 µM [activator, partial curve, poor fit]"
15,CCc1nnc(NS(=O)(=O)c2ccc(N3C(=O)C4CC=C(Cl)CC4C3=O)cc2)s1 (stereo not drawn),"inconclusive: 20.6 µM [activator, partial curve, poor fit]"
16,CCOC(=O)CSc1nc(-c2ccncc2)ccc1C#N,"inconclusive: 25.9 µM [activator, partial curve]"
17,CCOC(=O)C(C)Sc1nnc2ccc3ccccc3n12 (stereo not drawn),inactive
18,CCNC(=O)NC(=O)C(C)OC(=O)CCCSc1nc2ccccc2s1 (stereo not drawn),"inconclusive: 14.6 µM [falling, single point]"
19,O=C(Nc1ccncc1)c1ccc(Cl)c(S(=O)(=O)N2CCCCC2)c1,"inconclusive: 10.3 µM [falling, partial curve, poor fit]"
20,COc1ccc(OC)c(NC(=O)CS(=O)(=O)Cc2ccccc2)c1,inactive
21,O=C1c2ccc(-c3nc4ccccc4o3)cc2C(=O)N1Cc1cccnc1,inactive
22,CCN=C1S/C(=C\c2cn(CC)c3ccccc23)C(=O)N1CC,"inconclusive: 7.31 µM [activator, partial curve, poor fit]"
23,CC(C)N1C(=O)S/C(=C/c2ccc3c(c2)n(C)c(=O)n3C)C1=O,"inconclusive: 3.26 µM [falling, full curve, poor fit]"

row,Structure (SMILES),Potency
1,O=C1CSC(c2ccccc2Cl)N1 (stereo not drawn),inactive
2,CCOc1cc(/C=N/NC(=O)c2cc(-c3cccc(OC)c3)nc3ccccc23)ccc1O,"inconclusive: 29.1 µM [activator, single point]"
3,N#C/C(=C\c1cn(CC(=O)N2CCCCC2)c2ccccc12)C(=O)NCc1ccc2c(c1)OCO2,"inconclusive: 29.1 µM [falling, partial curve, poor fit]"
4,COC(=O)c1c(NC(=O)c2c(-c3ccccc3Cl)noc2C)sc2c1CCC2,"inconclusive: 14.1 µM [falling, single point]"
5,CC1CCCN(C(=O)CNC(=O)c2ccco2)C1 (stereo not drawn),"inconclusive: 5.8 µM [activator, full curve]"
6,CCC(NC(=O)c1cc(COc2ccc(C)nc2)on1)c1ccc(C)cc1 (stereo not drawn),active: 8.2 µM
7,Cc1ccccc1OCCCCn1cnc2ccccc21,active: 6.51 µM
8,Cc1ccc(/C=N/Nc2cccc3cccnc23)c(O)c1,"inconclusive: 18.4 µM [activator, partial curve]"
9,Cc1n[nH]c(C)c1NC(=O)CN1CCN(S(=O)(=O)c2ccc(C(F)(F)F)cc2)CC1,inactive
10,Cc1cccc(NC(=O)c2ccc3c(=O)n(CC4CCCO4)c(=S)[nH]c3c2)c1 (stereo not drawn),"inconclusive: 29.1 µM [falling, single point]"
11,Cc1ccc(NC(=O)c2cccc(S(=O)(=O)N3CCCCC3)c2)cc1,"inconclusive: 23.1 µM [falling, single point]"
12,Cc1[nH][nH]c(=O)c1C=NCc1cccc(C(F)(F)F)c1,"inconclusive: 1.3 µM [falling, full curve, poor fit]"
13,O=[N+]([O-])c1ccccc1-c1ccc(C(=S)N2CCCCC2)o1,"inconclusive: 3.26 µM [activator, full curve]"
14,Cc1ccc(CC2C(=O)N(CC(=O)O)C(=O)C2C)cc1 (stereo not drawn),inactive
15,COc1ccc(/C=C(\C#N)C(=O)NCc2ccccc2)cc1,"inconclusive: 3.66 µM [activator, partial curve, poor fit]"
16,CC1Cc2ccccc2N1C(=O)c1ccc2nccnc2c1 (stereo not drawn),"inconclusive: 0.731 µM [falling, full curve, poor fit]"
17,CCCCNC(=O)c1[nH]c2ccccc2c1Sc1ccc(C)cc1,inactive
18,COc1ccc(NS(=O)(=O)c2cccc(NC(=O)CCC(=O)c3cccs3)c2)cc1,inactive
19,NC(=O)c1ccsc1NC(=O)CSc1ccccc1F,inactive
20,CCOc1ccc(NC2c3ccccc3C(=O)N2Cc2ccco2)cc1 (stereo not drawn),"inconclusive: 29.1 µM [falling, single point]"
21,O=C(Nc1ccc(F)cc1)c1oc2ccccc2c1NC(=O)C1CCCC1,inactive
22,COc1cc(OC)c(NC(=O)CCn2cnc3onc(-c4ccc(F)cc4)c3c2=O)cc1Cl,"inconclusive: 6.51 µM [falling, single point]"

# 14 successive records from above, for reference:
row,Structure (SMILES),Potency
9,Cc1n[nH]c(C)c1NC(=O)CN1CCN(S(=O)(=O)c2ccc(C(F)(F)F)cc2)CC1,inactive
10,Cc1cccc(NC(=O)c2ccc3c(=O)n(CC4CCCO4)c(=S)[nH]c3c2)c1 (stereo not drawn),"inconclusive: 29.1 µM [falling, single point]"
11,Cc1ccc(NC(=O)c2cccc(S(=O)(=O)N3CCCCC3)c2)cc1,"inconclusive: 23.1 µM [falling, single point]"
12,Cc1[nH][nH]c(=O)c1C=NCc1cccc(C(F)(F)F)c1,"inconclusive: 1.3 µM [falling, full curve, poor fit]"
13,O=[N+]([O-])c1ccccc1-c1ccc(C(=S)N2CCCCC2)o1,"inconclusive: 3.26 µM [activator, full curve]"
14,Cc1ccc(CC2C(=O)N(CC(=O)O)C(=O)C2C)cc1 (stereo not drawn),inactive
15,COc1ccc(/C=C(\C#N)C(=O)NCc2ccccc2)cc1,"inconclusive: 3.66 µM [activator, partial curve, poor fit]"
16,CC1Cc2ccccc2N1C(=O)c1ccc2nccnc2c1 (stereo not drawn),"inconclusive: 0.731 µM [falling, full curve, poor fit]"
17,CCCCNC(=O)c1[nH]c2ccccc2c1Sc1ccc(C)cc1,inactive
18,COc1ccc(NS(=O)(=O)c2cccc(NC(=O)CCC(=O)c3cccs3)c2)cc1,inactive
19,NC(=O)c1ccsc1NC(=O)CSc1ccccc1F,inactive
20,CCOc1ccc(NC2c3ccccc3C(=O)N2Cc2ccco2)cc1 (stereo not drawn),"inconclusive: 29.1 µM [falling, single point]"
21,O=C(Nc1ccc(F)cc1)c1oc2ccccc2c1NC(=O)C1CCCC1,inactive
22,COc1cc(OC)c(NC(=O)CCn2cnc3onc(-c4ccc(F)cc4)c3c2=O)cc1Cl,"inconclusive: 6.51 µM [falling, single point]"
